# Article PMC12495445
# No constants are given. Whether binding was seen depends on the method and setting. Binding seen in cells or lysates may run through a third protein. Binding can be weak; no strength is given. Where a sequence is shown, tags or fusion partners need not be part of it.
# B1: GFP-Rab3BT36N (protein, UniProt Q9CZT8 1-219)
# chain: MASVTDGKTGIKDASDQNFDYMFKLLIIGNSSVGKNSFLFRYADDTFTPAFVSTVGIDFKVKTVYRHEKRVKLQIWDTAGQERYRTITTAYYRGAMGFILMYDITNEESFNAVQDWATQIKTYSWDNAQVILVGNKCDMEEERVVPTEKGRLLAEQLGFDFFEASAKENISVRQAFERLVDAICDKMSDSMDTDPSVLGASKTTRLSDTPPLLQQNCSC
# B2: GFP-Rab3CT44N (protein, UniProt P62823 1-227)
# chain: MRHEAPMQMASAQDARFGQKDSSDQNFDYMFKLLIIGNSSVGKNSFLFRYADDSFTSAFVSTVGIDFKVKTVFKNEKRIKLQIWDTAGQERYRTITTAYYRGAMGFILMYDITNEESFNAVQDWSTQIKTYSWDNAQVILAGNKCDMEDERVVSTERGQRLGEQLGFEFFETSAKDNINVKQTFERLVDIICDKMSESLETDPAITAAKQSTRLKETPPPPQPNCGC
# B3: GFP-Rab37T43N (protein, UniProt Q9JKM7 1-223)
# chain: MTGTPGAATAGDGEAPERSPPFSPNYDLTGKVMLLGDSGVGKNCFLIQFKDGAFLSGTFIATVGIDSRNKVVTVDGARVKLQIWDTAGQERFRSVTHAYYRDAQALLLLYDITNQSSFDNIRAWLTEIHEYAQRDVVIMLLGNKADVSSERVIRSEDGETLAREYGVPFMETSAKTGMNVELAFLAIAKELKYRAGRQPDEPSFQIRDYVESQKKRSSCCSFV
# B4: GFP-Rab27B T23N (protein, UniProt O00194 1-218)
# chain: MTDGDYDYLIKLLALGDSGVGKNTFLYRYTDNKFNPKFITTVGIDFREKRVVYNAQGPNGSSGKAFKVHLQLWDTAGQERFRSLTTAFFRDAMGFLLMFDLTSQQSFLNVRNWMSQLQANAYCENPDIVLIGNKADLPDQREVNERQARELADKYGIPYFETSAATGQNVEKAVETLLDLIMKRMEQCVEKTQIPDTVNGGNSGNLDGEKPPEKKCIC
# B5: GFP-Rab26T81N (protein, UniProt Q504M8 1-260)
# chain: MSRKKTPKSKGGSEPATSTLPAAAAATNGPRLAHPRTVRPGPEAPPNGPPQSIRPSLGSTGDFYDVAFKVMLVGDSGVGKNCLLVRFKDGAFLAGTFISTVGIDFRNKVLDVDGMKVKLQIWDTAGQERFRSVTHAYYRDAHALLLLYDITNKDSFDNIQAWLTEIQEYAQQDVVLMLLGNKVDSTQDRVVKREDGEKLAKEYGLPFMETSARTGLNVDLAFTAIAKELKQRSAKAPSEPRFRLHDYVKREGRGVSCCRL
# Target: FLAG-DENN/MADD-V1 (human)
# Assay: co-IP; HEK-293T cells cotransfected with FLAG-DENN/MADD (WT or L346P) and GFP or GFP-Rab mutants; lysed 24 h later in 20 mM Hepes, 100 mM NaCl, 0.5 mM dithiothreitol, 10 mM MgCl2, 1% Triton X-100, pH 7.4; 1 mg of precleared lysate with anti-FLAG antibody and protein G-Sepharose, 2 h, 4 °C; immunoblot with anti-GFP and anti-FLAG
row,binding,Binder
1,binds,B1
2,binds,B2
3,binds,B3
4,binds,B4
5,binds,B5

# Target: FLAG-DENN/MADD-L346P (human)
# Assay: as above
row,binding,Binder
1,binds,B2
2,binds,B4
